Data taken from doi:10.1101/2020.05.27.118315.
No constants are given. Whether binding was seen depends on the method and setting. Binding calls can cover weak binding; strength is not graded here. Where a sequence is shown, tags or fusion partners need not be part of it. One block for each molecule: values may come before it.

How the values were obtained:
[1] = target: T1, Gal4-BD-Snx4 (S. cerevisiae) (UniProt P47057); experiment: two-hybrid
T1 sequence: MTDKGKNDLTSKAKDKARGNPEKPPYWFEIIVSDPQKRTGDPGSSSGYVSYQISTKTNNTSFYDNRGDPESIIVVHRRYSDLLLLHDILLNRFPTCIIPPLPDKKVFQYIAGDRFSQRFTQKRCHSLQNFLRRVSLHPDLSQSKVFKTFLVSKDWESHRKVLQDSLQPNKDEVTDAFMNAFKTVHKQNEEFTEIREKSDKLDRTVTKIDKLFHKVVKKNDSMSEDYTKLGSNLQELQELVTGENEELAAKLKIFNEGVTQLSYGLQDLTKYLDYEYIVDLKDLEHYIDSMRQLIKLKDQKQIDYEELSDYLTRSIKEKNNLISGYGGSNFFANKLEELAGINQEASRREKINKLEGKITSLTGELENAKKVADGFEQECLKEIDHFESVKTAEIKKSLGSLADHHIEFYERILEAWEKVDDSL

[2] = target: Gal4-BD-Snx4 BAR binding domain construct (S. cerevisiae); experiment: two-hybrid

binding [1]: binds
Molecule: Gal4-AD-Med13 construct, structured C-terminal tail domain (S. cerevisiae) (domain or fragment)

binding [2]: binds
B1: Gal4-AD-Med13^907-1163 (domain or fragment, UniProt P38931 907-1163)
chain: KFYNMKQPYVFVKKHHELIKVKHDSQPFIKFLNFRPPNGIKNFKSLLLSSSFKEDCLSFAPTLSQTYINQELGFCELLKLTNEDPPGLMYLKAFDKNKLLLLAAQIVSYCSNNKNSIKNVPPILIILPLDNATLTELVDKANIFQVIKNEVCAKMPNIELYLKVIPMDFIRNVLVTVDQYVNVAISIYNMLPPKSVKFTHIAHTLPEKVNFRTMQQQQMQQQQQQQQQQQNNSTGSSSIIYYDSYIHLAYSRSVDKE
